The target in series [1] is T1, TYK (TgoT E664K) (Thermococcus gorgonarius) (UniProt P56689).
T1 sequence (limits assumed): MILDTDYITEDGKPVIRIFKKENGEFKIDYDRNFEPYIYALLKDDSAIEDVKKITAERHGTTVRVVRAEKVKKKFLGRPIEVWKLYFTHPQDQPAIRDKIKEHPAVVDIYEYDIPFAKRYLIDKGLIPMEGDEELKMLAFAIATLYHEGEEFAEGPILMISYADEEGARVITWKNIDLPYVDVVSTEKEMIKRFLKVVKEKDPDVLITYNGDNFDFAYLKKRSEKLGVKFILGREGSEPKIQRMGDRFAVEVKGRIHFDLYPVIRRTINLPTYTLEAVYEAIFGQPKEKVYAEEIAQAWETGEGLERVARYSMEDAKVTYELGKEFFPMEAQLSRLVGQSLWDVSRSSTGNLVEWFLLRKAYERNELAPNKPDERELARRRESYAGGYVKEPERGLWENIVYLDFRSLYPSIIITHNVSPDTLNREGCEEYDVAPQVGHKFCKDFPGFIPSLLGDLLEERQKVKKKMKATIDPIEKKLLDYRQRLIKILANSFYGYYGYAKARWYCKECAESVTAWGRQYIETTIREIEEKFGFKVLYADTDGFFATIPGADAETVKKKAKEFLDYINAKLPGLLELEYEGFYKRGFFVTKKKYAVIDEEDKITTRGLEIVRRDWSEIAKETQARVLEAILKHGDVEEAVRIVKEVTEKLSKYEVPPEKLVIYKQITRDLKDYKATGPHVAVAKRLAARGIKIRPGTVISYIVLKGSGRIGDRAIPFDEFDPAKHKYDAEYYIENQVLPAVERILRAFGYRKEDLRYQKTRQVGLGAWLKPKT
Put plainly: EMSA. The following applies: K0 strand is RNA; E664K second gate mutation increases affinity vs E664 parent; Kd fit, individual Kd not given; mutant construct (TYK/TGK) not specified; 1x Thermopol, 1 mM EDTA; purified recombinant protein; label: 5'FITC on K0, 5'biotin on TempK4; DNA:RNA hybrid; variant of K0 DNA primer / TempK4. For orientation: In EMSA bound probe runs differently from free probe, usually more slowly.

The target of series [2] is T2, TgoT DNA polymerase (V93Q D141A E143A A485L) (Thermococcus gorgonarius) (UniProt P56689).
T2 sequence (limits assumed): T1 sequence (limits assumed) with K664E
Nature of the series: EMSA. The following applies: reference polymerase, 3- to 10-fold lower affinity than E664K mutant, purified recombinant protein, label: 5'FITC on K0, 5'biotin on TempK4.

The target in series [3] is T3, TNK (TgoT Y409N E664K) (Thermococcus gorgonarius) (UniProt P56689).
T3 sequence (limits assumed): T1 sequence (limits assumed) with Y409N
Nature of the series: activity assay. The following applies: RNA polymerase activity significantly better than TNQ; template taken from Methods; protein in a lysate after overexpression.

Series [4] addresses T2, TgoT DNA polymerase (V93Q D141A E143A A485L) (Thermococcus gorgonarius). Nature of the series: activity assay. The following applies: template taken from Methods, purified recombinant protein.
Series [5] deals with T4, TN (TgoT Y409N) (Thermococcus gorgonarius) (UniProt P56689).
T4 sequence (limits assumed): T1 sequence (limits assumed) with Y409N, K664E
Nature of the series: activity assay. To be noted: Y409N only marginally improves RNA polymerase activity; template taken from Methods; protein in a lysate after overexpression.

For series [6], the target named is T5, D4 polymerase (Thermococcus gorgonarius) (UniProt P56689).
T5 sequence (limits assumed): T1 sequence (limits assumed) with P657T, E658Q, K659H, Y663H, K664Q, D669A, K671N, T676I
Nature of the series: activity assay. To be noted: FD strand is RNA; RNA synthesis from RNA primer; template taken from Methods; protein in a lysate after overexpression; DNA:RNA hybrid; variant of FD DNA primer / TempN.

Positions count from the first letter of the chain named. For some assays here: Weaker means in comparison with the reference protein, sequence or condition of that experiment. Where a protein sequence is shown, tags need not be part of it. For some assays here: Construct, isoform or probe ends are uncertain for at least one entry. For some assays here: A negative result means that nothing was seen under these conditions.

We go through four sequences from patent US20180237756.

In the case of “GCACGGCAGCACGTG / ACTGCGATGACTGTACTCGTCTAGTAGCACTGCACGTGCTGCCGTGC [K0 RNA primer / TempK4]”, the binding result in series [1] is listed as “binds”; in series [2] (K0 strand is RNA, DNA:RNA hybrid, variant of K0 DNA primer / TempK4), “binds more weakly”.

Take “CCCCTTATTAGCGTTTGCCA / CTCACGATGCTGGACCAGATAAGCACTTAGCCACGTAGTGCTGTTCGGTAATCGATCTGGCAAACGCTAATAAGGGG [FD DNA primer / TempN]”: the “activity on this sequence” value in series [3] is “active”; in series [4] (RNA synthesis stalls) it was “less active”; in series [5], “less active”.

“GCACGGCAGCACGTG / ACTGCGATGACTGTACTCGTCTAGTAGCACTGCACGTGCTGCCGTGC [K0 DNA primer / TempK4]”: the binding result in series [2] is listed as “binds more weakly”.

For the sequence “CCCCTTATTAGCGTTTGCCA / CTCACGATGCTGGACCAGATAAGCACTTAGCCACGTAGTGCTGTTCGGTAATCGATCTGGCAAACGCTAATAAGGGG [FD RNA primer / TempN]”, in series [6], the activity on this sequence (NTP incorporations) was greater than 20. The “activity on this sequence” value in series [4] (FD strand is RNA, no RNA synthesis from RNA primer, DNA:RNA hybrid, variant of FD DNA primer / TempN) is “not active”.
